Our source for the binding values is publication PMC5394238.

Sequences of proteins named here, by UniProt entry; tags and fusion partners are left off. A change or cut given only in a name is not applied to a line headed by its entry. A line that says so, or that is headed by a name, gives the form on record, which may keep a tag or linker.
227/332-CL mutant of Drosophila kinesin-1 (1-401) (P17210, form named): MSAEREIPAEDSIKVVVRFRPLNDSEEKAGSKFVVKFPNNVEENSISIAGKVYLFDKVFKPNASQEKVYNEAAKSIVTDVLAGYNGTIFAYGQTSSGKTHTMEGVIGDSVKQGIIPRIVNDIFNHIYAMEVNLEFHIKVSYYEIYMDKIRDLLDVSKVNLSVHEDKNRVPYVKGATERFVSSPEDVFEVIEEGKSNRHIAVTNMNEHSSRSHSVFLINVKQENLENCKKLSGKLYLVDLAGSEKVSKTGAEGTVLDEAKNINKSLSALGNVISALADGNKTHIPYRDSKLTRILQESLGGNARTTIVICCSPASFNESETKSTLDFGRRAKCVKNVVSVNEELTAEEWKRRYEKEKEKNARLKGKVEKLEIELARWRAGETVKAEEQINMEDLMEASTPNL
cysteine-light (CL) mutant of Drosophila kinesin-1 (1-401) (P17210, form named): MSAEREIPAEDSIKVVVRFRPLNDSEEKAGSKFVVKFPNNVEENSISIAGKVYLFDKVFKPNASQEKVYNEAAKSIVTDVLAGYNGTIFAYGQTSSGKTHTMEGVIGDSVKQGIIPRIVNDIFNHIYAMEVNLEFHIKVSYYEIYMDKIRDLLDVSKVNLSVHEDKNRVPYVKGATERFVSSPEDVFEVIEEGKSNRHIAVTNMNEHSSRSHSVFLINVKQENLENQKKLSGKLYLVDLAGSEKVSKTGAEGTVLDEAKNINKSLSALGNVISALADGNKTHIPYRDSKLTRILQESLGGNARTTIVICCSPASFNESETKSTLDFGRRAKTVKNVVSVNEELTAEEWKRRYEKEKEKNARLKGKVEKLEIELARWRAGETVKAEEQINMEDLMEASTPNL

The target in the assay is 227/332-CL mutant of Drosophila kinesin-1 (1-401) (Drosophila melanogaster) (UniProt P17210). As to the kind of experiment: tandem affinity co-purification (Ni-NTA, then Strep-Tactin); two heads co-expressed in E. coli BL21(DE3) from pCDF-duet (His-tag) and pMAL-p2 (MBP-tag, strep tag); supernatant over Ni-NTA, eluate over Strep-Tactin; the cysteine-light pair purified similarly.

Results are given in words; binding and its absence hold for the method and conditions named. Some entries that bind do so weakly or less than the wild type.

With “cysteine-light (CL) mutant of Drosophila kinesin-1 (1-401) (from UniProt P17210 1-401) (domain or fragment)”, the binding entry is “binds”.
